Reference: paper PMC4160248

Tests used:
Assay in all cases: co-IP; HEK293 cells cotransfected with GFP- and Myc-tagged constructs; lysis in Buffer A (20 mM Tris, 100 mM NaCl, 1% Nonidet-P 40, 1 mM EDTA, 1 mM EGTA); immunoprecipitation with mouse anti-GFP and Protein G beads at 4°C; blot for the tags
GFP-Tbx1 = target: T1, GFP-Tbx1 (UniProt O43435)
T1 sequence: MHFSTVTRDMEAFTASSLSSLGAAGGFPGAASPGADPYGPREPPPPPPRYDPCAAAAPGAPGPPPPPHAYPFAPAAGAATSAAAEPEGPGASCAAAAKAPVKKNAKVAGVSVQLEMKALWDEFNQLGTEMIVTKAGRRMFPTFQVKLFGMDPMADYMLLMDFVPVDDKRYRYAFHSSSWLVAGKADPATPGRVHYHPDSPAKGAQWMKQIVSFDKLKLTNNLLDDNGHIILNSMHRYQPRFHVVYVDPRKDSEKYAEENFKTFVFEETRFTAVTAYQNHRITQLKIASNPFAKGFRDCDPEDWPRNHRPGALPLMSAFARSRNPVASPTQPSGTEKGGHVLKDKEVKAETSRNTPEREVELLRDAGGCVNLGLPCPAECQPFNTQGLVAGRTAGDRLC

[1] = target: GFP tagged Cmb-PA (Combover/CG10732 isoform PA) (Drosophila melanogaster)
[2] = target: GFP tagged Cmb-PB (Combover/CG10732 isoform PB) (Drosophila melanogaster)

- binding (GFP-Tbx1): no binding
Molecule: Myc-tagged Mwh (Multiple wing hairs) (Drosophila melanogaster)

- binding [1]: no binding
- binding [2]: no binding
B1: Myc-Dazap1 (protein, UniProt Q96EP5 1-407)
chain: MNNSGADEIGKLFVGGLDWSTTQETLRSYFSQYGEVVDCVIMKDKTTNQSRGFGFVKFKDPNCVGTVLASRPHTLDGRNIDPKPCTPRGMQPERTRPKEGWQKGPRSDNSKSNKIFVGGIPHNCGETELREYFKKFGVVTEVVMIYDAEKQRPRGFGFITFEDEQSVDQAVNMHFHDIMGKKVEVKRAEPRDSKSQAPGQPGASQWGSRVVPNAANGWAGQPPPTWQQGYGPQGMWVPAGQAIGGYGPPPAGRGAPPPPPPFTSYIVSTPPGGFPPPQGFPQGYGAPPQFSFGYGPPPPPPDQFAPPGVPPPPATPGAAPLAFPPPPSQAAPDMSKPPTAQPDFPYGQYAGYGQDLSGFGQGFSDPSQQPPSYGGPSVPGSGGPPAGGSGFGRGQNHNVQGFHPYRR

No constants are given. Whether binding was seen depends on the method and setting. In cells and extracts the contact can be indirect. Sequences can lack the tags named with a protein. Each block holds one molecule with its values, some of them ahead of it.
